Measurements from doi:10.1101/2025.05.07.652675.
Results are given in words; binding and its absence hold for the method and conditions named. Binding calls can cover weak binding; strength is not graded here.

The chains behind the UniProt entries cited, without tags or fusion partners.
UniProt P75862: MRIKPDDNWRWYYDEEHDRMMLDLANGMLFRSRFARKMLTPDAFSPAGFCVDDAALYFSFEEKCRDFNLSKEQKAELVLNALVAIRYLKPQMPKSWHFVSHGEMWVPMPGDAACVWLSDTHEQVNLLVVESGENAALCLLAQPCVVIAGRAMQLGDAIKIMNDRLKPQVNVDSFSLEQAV

Key:
[1] = biological target: FtsZ-T25 fusion protein (bacterial two-hybrid) (E. coli) (UniProt P0A9A6); assay: two-hybrid
[2] = biological target: FtsZ^F285S, T25 fusion (bacterial two-hybrid) (E. coli) (UniProt P0A9A6); assay: two-hybrid

**Q.** How did the binding [1] turn out when “ZapC (bacterial two-hybrid fusion) (from UniProt P75862 1-180)” was run?
**A.** Its binding is “binds”.

**Q.** What about the binding [2] of the same substance?
**A.** The binding was “binds”.
